Data taken from publication PMC7293271.
No constants are given. Whether binding was seen depends on the method and setting. In cells and extracts the contact can be indirect. Some entries that bind do so weakly or less than the wild type.

Chains of the proteins cited; added tags and fusions are not shown.
UniProt P09382: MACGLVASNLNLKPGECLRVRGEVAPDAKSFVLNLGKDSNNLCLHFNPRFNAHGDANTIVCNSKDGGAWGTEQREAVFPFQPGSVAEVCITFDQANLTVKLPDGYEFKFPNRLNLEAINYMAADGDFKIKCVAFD

Target: T1, BARMR1 (UniProt A1XBS5)
T1 sequence: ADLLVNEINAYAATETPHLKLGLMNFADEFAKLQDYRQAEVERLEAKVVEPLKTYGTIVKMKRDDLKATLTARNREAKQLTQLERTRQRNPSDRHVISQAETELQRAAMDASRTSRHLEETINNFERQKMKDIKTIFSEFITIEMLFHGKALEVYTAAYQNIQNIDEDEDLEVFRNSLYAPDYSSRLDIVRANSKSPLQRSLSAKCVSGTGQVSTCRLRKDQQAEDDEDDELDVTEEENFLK
Test: co-IP; co-immunoprecipitation; cells, bait and antibodies not told in the text shown (Supplementary Fig. S6a)

Galectin-1 (from UniProt P09382 1-135)
binding: binds
